Data on 1 molecule can be found in patent US7179908B2, “Water-and organic-soluble cucurbituril derivatives, their preparation methods, their separation methods and uses” (Pohang University of Science and Technology Foundation, priority 2001, dated 2007).

A short description of the data set: Ion selective electrode with CB*[5] membrane, fixed solution method (Example 10). The settings on record: pH 4 Mg(OAc)2-HCl buffer.

As for `O=C1N2CN3C(=O)N4CN5C(=O)N6CN7C(=O)N8CN9C(=O)N%10CN1C1%11CCCCC21N1CN2C(=O)N(CN%12C(=O)N(CN%13C(=O)N(CN%14C(=O)N(CN%11C1=O)C%101CCCCC9%141)C81CCCCC7%131)C61CCCCC5%121)C41CCCCC321` (stereo not shown) [CB*[5]], the Detection limit was 6e-05 mol/L (ion analyzed K^+), 0.0004 mol/L (ion analyzed NH4^+), 0.00053 mol/L (ion analyzed Na^+) and 2.5e-07 mol/L (ion analyzed Pb^2+).
